{
  "source": "PubChem BioAssay AID2061320",
  "about": "(National Center for Advancing Translational Sciences (NCATS), 2025)",
  "note": "Inconclusive results, whose numbers are uncertain, are shown with a selection of clear calls. Potencies of inconclusive entries are doubtful fits and often do not repeat. The source made the active and inactive calls. Calls follow the shape of the dose curve; as a rule, active = well fitted inhibition curve with a large enough effect; inconclusive = small, poorly fitted or top-dose-only effect; inactive = flat fitted curve, though single readings scatter. Non-standard residues stand in square brackets, D forms with d. Residues, ends and D or L forms follow the SMILES beside them. *: point of attachment. Dolaproine = CO[C@@H]([C@@H]1CCCN1)[C@@H](C)C(=O)O; Dil = CC[C@H](C)[C@H](NC)[C@@H](CC(=O)O)OC; NMe2Val = CC(C)[C@@H](C(=O)*)N(C)C; X1 = C[C@@H](N*)[C@@H](O)c1ccccc1; NMeV = CN[C@H](C(=O)O)C(C)C",
  "data": [
    {"test": "Identification of antibody-drug conjugate (ADC) payloads which are substrates of ATP-binding cassette drug efflux transporters: ABCG2-H460-MX20 cell line", "conditions": "H460-MX20 (ABCG2) viability, CellTiter-Glo, 48 h; series mostly up to 28.7 µM; activity change, negative = inhibition: at the top concentration", "excerpt": "Antibody-drug conjugates (ADCs) feature an antibody recognizing a specific protein joined to a potent toxic payload. Numerous antibody-drug conjugates have received FDA approval; however, clinical resistance arises. Resistance mechanisms include decreased expression or mutation of the antibody target, impaired payload release, or increased expression of ATP-binding cassette (ABC) efflux transporters associated with multidrug resistance. We therefore sought to characterize the interaction of ABC multidrug transporters with ADC payloads. We performed a high-throughput screen with 27 common ADC payloads using cells lines expressing ABC transporters P-glycoprotein (P-gp, encoded by ABCB1) or ABCG2 (encoded by ABCG2). Confirmatory assays were also performed using cells transfected to express P-gp, ABCG2, or MRP1 (encoded by ABCC1). Several commonly used ADC payloads were substrates of P-gp, including calicheamicin gamma1, monomethyl auristatin E, DM1, and DM4. All the pyrrolobenzodiazepines tested - SJG136, SGD-1882, SG2057, and SG3199 - were substrates of P-gp, ABCG2, and MRP1. […] These findings highlight the risk of transporter-mediated resistance with certain ADC payloads and underscore the importance of selecting payloads that evade ABC transporter recognition in future ADC development.\nHEK-293 cells were transfected with empty vector (pcDNA) or vector containing the human ABCB1 (MDR-19), ABCG2 (R-5), or ABCC1 gene (MRP1) and were maintained in EMEM with 2 mg/mL G418 added to maintain transporter expression. The HeLa derivative KB-3-1 and the P-gp overexpressing KB-8-5-11 subline were maintained in DMEM; KB-8-5-11 additionally received 100 ng/mL colchicine. H460 parental cells were obtained from the Division of Cancer Treatment and Diagnosis Tumor Repository, National Cancer Institute at Frederick, MD and were cultured in RPMI. The ABCG2 expressing subline H460 MX20 was generated by selecting H460 cells in 20 nM mitoxantrone. Media in all cases was supplemented with 10% FBS and 1% penicillin-streptomycin. We explored 27 common ADC payloads, in two orthogonal, paired cell line sets-a drug selected and transfected set for each transporter--to identify substrates of the ABC transporters P-gp and ABCG2. Compounds were sourced from Levena Biopharma (San Diego, CA), Selleck Chem (Houston, TX), ChemieTek (Indianapolis, IN), or Microsource Discovery Systems (Gaylordsville, CT). Screening was performed as previously described. Briefly, cells were plated at a density of 500 cells/well in 1536 well plates with compounds added using a 1536-head pin tool (Kalypsys, San Diego CA). Cells were incubated with cytotoxic drugs and processed with CellTiter Glo reagent (Promega, Madison, WI) to determine viability after 48 hours. P-gp substrates were identified by comparing compound activity between paired sets of low-expressing (sensitive) and over-expressing (resistant) cell lines.", "values": [
      {"smiles": "CC[C@@]1(O)C(=O)OCc2c1cc1n(c2=O)Cc2cc3ccccc3nc2-1", "Potency": "inconclusive: 238 nM [inhibitor, full curve]"},
      {"smiles": "CC[C@H](C)[C@@H]([C@@H](CC(=O)N1CCC[C@H]1[C@H](OC)[C@@H](C)C(=O)N[C@@H](Cc1ccccc1)C(=O)O)OC)N(C)C(=O)[C@@H](NC(=O)[C@H](C(C)C)N(C)C)C(C)C", "note": "(NMe2Val-V[Dil][Dolaproine]F-OH)", "Potency": "inconclusive: 134 nM [inhibitor, full curve]"},
      {"smiles": "CC[C@H](C)[C@@H]([C@@H](CC(=O)N1CCC[C@H]1[C@H](OC)[C@@H](C)C(=O)N[C@H](C)[C@@H](O)c1ccccc1)OC)N(C)C(=O)[C@@H](NC(=O)[C@@H](NC)C(C)C)C(C)C", "note": "(H-[NMeV]V[Dil][Dolaproine]-X1)", "Potency": "inconclusive: 1.9 nM [inhibitor, full curve, poor fit]"},
      {"smiles": "COc1cc2cc(c1Cl)N(C)C(=O)C[C@H](OC(=O)C(C)C)[C@]1(C)O[C@H]1[C@H](C)[C@@H]1C[C@@](O)(NC(=O)O1)[C@H](OC)C=CC=C(C)C2", "Potency": "inconclusive: 6 nM [inhibitor, full curve]"},
      {"smiles": "COc1cc2cc(c1Cl)N(C)C(=O)C[C@H](OC(=O)[C@H](C)N(C)C(=O)CCS)[C@]1(C)OC1[C@H](C)C1C[C@@](O)(NC(=O)O1)[C@H](OC)/C=C/C=C(\\C)C2", "note": "(stereo partly drawn)", "Potency": "active: 15000 nM"},
      {"smiles": "COc1cc2cc(c1Cl)N(C)C(=O)C[C@H](OC(=O)[C@H](C)N(C)C(=O)CCC(C)(C)S)[C@]1(C)OC1[C@H](C)C1C[C@@](O)(NC(=O)O1)[C@H](OC)/C=C/C=C(\\C)C2", "note": "(stereo partly drawn)", "Potency": "inconclusive: 3.4 nM [inhibitor, full curve]"},
      {"smiles": "CC[C@H](C)[C@H](NC(=O)[C@H]1CCCCN1C)C(=O)N(C)[C@H](C[C@@H](OC(C)=O)c1nc(C(=O)O)cs1)C(C)C", "Potency": "inconclusive: 1890 nM [inhibitor, full curve]"},
      {"smiles": "CC[C@H](C)[C@H](NC(=O)[C@H]1CCCCN1C)C(=O)N(C)[C@H](C[C@@H](OC(C)=O)c1nc(C(=O)N[C@@H](Cc2ccccc2)C[C@H](C)C(=O)O)cs1)C(C)C", "activity change, negative = inhibition": "inactive: -25.4%"}
    ]}
  ]
}
